{
  "sequences": {"note": "Sequences of proteins named here, by UniProt entry; tags and fusion partners are left off. A change or cut given only in a name is not applied to a line headed by its entry.", "UniProt P18054": "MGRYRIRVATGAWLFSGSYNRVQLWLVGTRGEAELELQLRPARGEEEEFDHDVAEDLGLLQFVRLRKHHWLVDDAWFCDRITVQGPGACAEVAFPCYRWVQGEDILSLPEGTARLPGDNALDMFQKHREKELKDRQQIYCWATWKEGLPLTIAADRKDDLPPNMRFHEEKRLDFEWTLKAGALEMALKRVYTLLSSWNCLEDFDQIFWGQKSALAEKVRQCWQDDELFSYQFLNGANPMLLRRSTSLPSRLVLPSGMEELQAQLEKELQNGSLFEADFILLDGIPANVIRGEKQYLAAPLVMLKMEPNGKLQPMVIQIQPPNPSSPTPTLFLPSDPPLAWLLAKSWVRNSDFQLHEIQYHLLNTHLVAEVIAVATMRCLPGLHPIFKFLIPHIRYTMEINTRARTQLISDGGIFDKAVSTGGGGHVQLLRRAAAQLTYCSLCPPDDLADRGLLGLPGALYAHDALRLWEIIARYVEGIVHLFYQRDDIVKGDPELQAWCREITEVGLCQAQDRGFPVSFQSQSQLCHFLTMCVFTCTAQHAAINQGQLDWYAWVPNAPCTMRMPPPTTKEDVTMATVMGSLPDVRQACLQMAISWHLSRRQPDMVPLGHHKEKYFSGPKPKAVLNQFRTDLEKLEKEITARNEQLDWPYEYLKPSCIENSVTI"},
  "source": "PubChem BioAssay AID1671190",
  "about": "(National Center for Advancing Translational Sciences (NCATS), 2021)",
  "note": "The whole screen tested about 580,000 compounds, of which about 6,100 (1.1%) were called active. Inconclusive means that the source gave no clear call. Such entries were picked first, then a sample of the others. The call rests on the fitted dose curve; in most records, active means well fitted inhibition curve with a large enough effect; inconclusive means small, poorly fitted or top-dose-only effect, or another doubt; inactive means no such curve, though single readings can be large or run the other way. Where the call is inconclusive, the potency comes from a doubtful curve fit. On the % scale 0 is the no-effect control and ±100 the full control effect; potency means the concentration at half of the fitted maximal effect.",
  "data": [
    {"target": "Polyunsaturated fatty acid lipoxygenase ALOX12 (Homo sapiens) (UniProt P18054)", "test": "Primary qHTS assay for inhibitors of human arachidonate 12S-lipoxygenase (ALOX12): Round 2", "settings": "purified 12hLO, xylenol orange hydroperoxide absorbance; activity change, negative = inhibition: at 108 µM (top of the series) unless noted", "in_short": "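Hydroperoxide product was detected by ferrous iron/xylenol orange as the 573 to 405 nm absorbance ratio. Arachidonic acid at 40 uM (final) was turned over for 30 min at room temperature by 150 nM human 12hLO, pH 7.0 Hepes buffer, after 15 min compound preincubation.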", "values": [
      {"smiles": "N#Cc1nc(COc2ccc(F)cc2)oc1NCCc1ccccc1", "Potency": "inconclusive: 28.2 µM [inhibitor, single point]"},
      {"smiles": "FC(F)(F)c1cccc(-c2noc(CN3CCOCC3)n2)c1", "activity change, negative = inhibition": "inactive: -0.693%"},
      {"smiles": "OC(c1ccc(F)c(F)c1)c1nc(-c2cccc(C(F)(F)F)c2)cs1", "note": "(configuration not stated)", "Potency": "inconclusive: 44.7 µM [inhibitor, partial curve, poor fit]"},
      {"smiles": "CC1(C)CNc2cc(NC(=O)c3cccnc3NCc3ccncc3)ccc21", "Potency": "inconclusive: 17.2 µM [inhibitor, single point]"},
      {"smiles": "Cc1ccc(CCNc2ncnc3onc(-c4ccc(F)cc4)c23)cc1", "activity change, negative = inhibition": "inactive: 0.0223%"},
      {"smiles": "c1ccc(-c2nc(CSc3nnnn3-c3ccccc3)cs2)cc1", "Potency": "inconclusive: 5.62 µM [inhibitor, full curve]"},
      {"smiles": "CN(Cc1c(C(=O)N/N=C/c2cccc(F)c2)nnn1-c1nonc1N)c1ccccc1", "activity change, negative = inhibition": "inactive: -2.34%"},
      {"smiles": "O=C(O)c1cccc(C(=O)N2C[C@@H]3C[C@H](C2)c2ccc(NC(=O)c4cccs4)c(=O)n2C3)c1", "activity change, negative = inhibition": "inactive: -5.1%"},
      {"smiles": "COC(=O)C1=C(O)/C(=C\\c2ccc(CNC(=O)C(=O)Nc3ccc(C)cc3)o2)N=C1C", "Potency": "inconclusive: 7.94 µM [inhibitor, full curve, poor fit]"},
      {"smiles": "CN1C(=O)C2(CCCCC2)C1c1ccccc1", "note": "(configuration not stated)", "activity change, negative = inhibition": "inactive: 8.39%"},
      {"smiles": "Cc1ccc(-c2cc(C(=O)N3CCOCC3)no2)cc1", "activity change, negative = inhibition": "inactive: -4.07%"},
      {"smiles": "CCONC(=O)COC(c1ccccc1)c1ccccc1", "activity change, negative = inhibition": "inactive: -0.191%"},
      {"smiles": "Fc1ccc(CNCc2ccco2)cc1", "Potency": "inconclusive: 17.8 µM [inhibitor, full curve, poor fit]"},
      {"smiles": "COc1cc(CN2CC(=O)N(c3cccc(Cl)c3C)C2=S)cc(OC)c1OC", "activity change, negative = inhibition": "inactive: 0%"},
      {"smiles": "CN(CC1CCOC1)C(=O)NCc1cccc(F)c1", "note": "(configuration not stated)", "activity change, negative = inhibition": "inactive: 32.2%"},
      {"smiles": "COc1cc(-c2nc3cnccn3c2Nc2ccc(C)cc2)ccc1O", "Potency": "inconclusive: 70.8 µM [inhibitor, partial curve, poor fit]"},
      {"smiles": "Cc1sc(NC(=O)C2C3CCC(O3)C2C(=O)O)c(C(=O)OC(C)C)c1-c1ccc(Cl)cc1", "note": "(configuration not stated)", "Potency": "inconclusive: 25.1 µM [inhibitor, partial curve, poor fit]"},
      {"smiles": "COc1ccc(S[C@]2(c3nc(C)no3)CC(=O)N(P(=O)(OC)OC)[C@@H]2c2ccc(OC)cc2)cc1", "Potency": "inconclusive: 44.7 µM [inhibitor, partial curve, poor fit]"},
      {"smiles": "Cc1ccc(S(=O)(=O)c2[nH]c(-c3ccccc3)nc2SCC(N)=O)cc1", "Potency": "inconclusive: 39.8 µM [inhibitor, partial curve, poor fit]"},
      {"smiles": "C/C(=N\\NC(=O)c1cccc(S(=O)(=O)N2CCCC2)c1)c1ccncc1", "Potency": "inconclusive: 44.7 µM [inhibitor, partial curve, poor fit]"},
      {"smiles": "CCN1C(C(=O)c2ccccc2)=C(OC(=O)c2ccco2)c2ccccc2S1(=O)=O", "Potency": "inconclusive: 7.94 µM [inhibitor, full curve, poor fit]"},
      {"smiles": "CCOC(=O)C1=C(CN2CCc3ccccc32)NC(=O)NC1c1cccc([N+](=O)[O-])c1", "note": "(configuration not stated)", "Potency": "inconclusive: 35.5 µM [inhibitor, partial curve]"},
      {"smiles": "CCn1c(CN2CCOCC2)nnc1SCC(=O)c1cc(C)n(CC)c1C", "Potency": "inconclusive: 35.5 µM [inhibitor, partial curve, poor fit]"},
      {"smiles": "COc1cc2c(O)cc(C(=O)O)c(-c3cc(OC)c(OC)c(OC)c3)c2cc1OC", "Potency": "inconclusive: 2.51 µM [inhibitor, full curve, poor fit]"},
      {"smiles": "CCc1ccc2[nH]c(=O)c(CN(Cc3ccccc3)Cc3nnnn3Cc3ccco3)cc2c1", "activity change, negative = inhibition": "inactive: 8.61%"},
      {"smiles": "O=C(NC1CCCC1)N1c2ccccc2CC1c1noc(C2CCOCC2)n1", "note": "(configuration not stated)", "activity change, negative = inhibition": "inactive: 60.1%"},
      {"smiles": "c1ccc(CN2CCC(NCc3c[nH]c4ccccc34)C2)cc1", "note": "(configuration not stated)", "Potency": "inconclusive: 0.355 µM [inhibitor, full curve, poor fit]"},
      {"smiles": "O=C(Cc1cccs1)NCc1ccc(Cl)cc1Cl", "Potency": "inconclusive: 100 µM [inhibitor, partial curve, poor fit]"},
      {"smiles": "COc1ccc(C(=O)c2sc3nc(C)cc(-c4cccs4)c3c2N)cc1OC", "activity change, negative = inhibition": "inactive: -15.7%"},
      {"smiles": "Cc1ccc2oc3c(c(=O)c2c1)C(c1ccccc1F)N(CCCN(C)C)C3=O", "note": "(configuration not stated)", "Potency": "inconclusive: 89.1 µM [inhibitor, partial curve, poor fit]"},
      {"smiles": "Cc1noc(CSc2ccccc2C(=O)N2CC=C(c3ccccc3)CC2)n1", "Potency": "inconclusive: 44.7 µM [inhibitor, partial curve, poor fit]"},
      {"smiles": "CCOC(=O)N1CCN(c2cc(C(=O)O)c3cc(NC(=O)C(C)C)ccc3n2)CC1", "Potency": "inconclusive: 50.1 µM [inhibitor, partial curve, poor fit]"},
      {"smiles": "O=C(CN1C(=O)/C(=C/c2ccc(F)cc2)SC1=S)N1CCN(CCc2ccccn2)CC1", "Potency": "inconclusive: 15.8 µM [inhibitor, single point]"},
      {"smiles": "CCCSc1nnc2c(n1)OC(c1ccc(Br)s1)Nc1ccccc1-2", "note": "(configuration not stated)", "Potency": "inconclusive: 89.1 µM [inhibitor, partial curve, poor fit]"},
      {"smiles": "O=C(COc1ccc(Cl)cc1)Nc1ccc(Cc2ccncc2)cc1", "activity change, negative = inhibition": "inactive: 13.2%"},
      {"smiles": "CC(=O)NCCNC(=O)c1cc(C)nc2ccc(C)cc12", "Potency": "inconclusive: 63.1 µM [inhibitor, single point]"},
      {"smiles": "CCSc1cc(N2CCOCC2)nc(-c2ccccc2)n1", "activity change, negative = inhibition": "inactive: 11.3%"},
      {"smiles": "COc1cccc2sc(NC(=O)c3ccc4c(c3)OCCN(C3CCC3)C4)nc12", "Potency": "inconclusive: 44.7 µM [inhibitor, partial curve]"},
      {"smiles": "COCCOC(=O)C1=C(C)OC(N)=C(C#N)C1c1ccc2c(c1)OCO2", "note": "(configuration not stated)", "Potency": "inconclusive: 39.8 µM [inhibitor, partial curve, poor fit]"},
      {"smiles": "COc1ccc(-c2onc(C)c2C)cc1S(=O)(=O)NCC(C)c1ccccc1", "note": "(configuration not stated)", "Potency": "inconclusive: 89.1 µM [inhibitor, partial curve, poor fit]"},
      {"smiles": "Cc1ccc(F)c(OC2(C(=O)O)CCN(Cc3cccc(C)n3)CC2)c1", "Potency": "inconclusive: 8.91 µM [inhibitor, full curve]"},
      {"smiles": "CCn1cc(CN2CCC(C(=O)Nc3ccc(Oc4ccccc4F)cc3)CC2)cn1", "Potency": "inconclusive: 100 µM [inhibitor, single point]"}
    ]}
  ]
}
